Data as given in PubChem BioAssay AID686937 (Drosophila RNAi Screening Center, 2013).

Aim: 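Knock-downs that reduce output of a secreted reporter enzyme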 (primary screen)
Cells: Drosophila S2 cells expressing secreted horseradish peroxidase
Reagents: long dsRNA against Drosophila genes
Duration: about 5.5 days (5 days dsRNA, then 12 h reporter induction)
Treatment: reporter expression induced after 5 days of dsRNA, read 12 h later; inducer not stated
Read-out: 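After 5 days of dsRNA and 12 h of reporter induction, medium peroxidase read by chemiluminescence and scored as per-plate z-score; higher values mean more reporter released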
Direction: z-score: higher = more reporter secreted into medium
The screen tested about 23,000 reagents; below is an unselected part of those with a known target gene and a result. 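Reduced-secretion tags in replicate 1 do not always agree with the z-scores; no criterion for assigning the tags was given.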 Reagents against one gene are numbered here. Names joined by + are all predicted targets of the reagent. Reagent sequences are not shown. Not given: the amount of reagent.

| target | reagent no. | z-score, replicate 1 | z-score, replicate 2 | z-score, replicate 3 | z-score, replicate 4 | phenotype, replicate 1 |
| --- | --- | --- | --- | --- | --- | --- |
| Os-C (GeneID 40942) | 1 | 0.19 | 0.14 | – | – | – |
| Bgb (GeneID 38198) | 1 | -0.97 | -0.93 | – | – | – |
| CG4716 (GeneID 36471) | 1 | 0.21 | -0.06 | – | – | – |
| CG4770 (GeneID 42375) | 1 | 0.41 | 0.41 | – | – | – |
| if (GeneID 32661) | 1 | 0.19 | -0.16 | – | – | – |
| Elp4 (GeneID 33775) | 1 | -1.12 | -1.16 | – | – | – |
| Lap1 (GeneID 36670) | 1 | 0.04 | 0.14 | – | – | – |
| Trc8 (GeneID 43476) | 1 | 0.22 | 0.12 | – | – | – |
| CG13218 (GeneID 36177) | 1 | 0.29 | 0.63 | – | – | – |
| Arglu1 (GeneID 34320) | 1 | 0.54 | 0.4 | – | – | – |
| CSN6 (GeneID 42661) | 1 | -0.36 | -0.16 | – | – | – |
| CG14406 (GeneID 32421) | 1 | 0.31 | 0.28 | – | – | – |
| CG32054 (GeneID 326185) | 1 | 0.33 | 0.2 | – | – | – |
| CG6602 (GeneID 38691) | 1 | 0.39 | 0.44 | – | – | – |
| LSm1 (GeneID 37413) | 1 | 0.36 | 0.56 | – | – | – |
| stumps (GeneID 41770) | 1 | 0.49 | 0.57 | – | – | – |
| stumps (GeneID 41770) | 2 | 0.48 | 0.34 | – | – | – |
| stumps (GeneID 41770) | 3 | 0.27 | 0.45 | – | – | – |
| MFS15 (GeneID 37168) | 1 | 0.21 | -0.17 | – | – | – |
| CR43361 (GeneID 12798289) | 1 | 0.44 | 0.47 | – | – | – |
| Gale (GeneID 38076) | 1 | 0.14 | -0.13 | – | – | – |
| dimm (GeneID 35404) | 1 | 0.08 | 0.28 | – | – | – |
| inaF-B + inaF-D + inaF-C + 1 more | 1 | 0.08 | 0.02 | – | – | – |
| Jhbp13 (GeneID 34729) | 1 | 0.12 | 0.44 | – | – | – |
| CG2269 (GeneID 36056) | 1 | 0.58 | 0.39 | – | – | – |
| CG9386 (GeneID 41148) | 1 | 0.5 | 0.73 | – | – | – |
| CG40298 (GeneID 3355149) | 1 | 0.65 | 0.42 | – | – | – |
| NPF (GeneID 42018) | 1 | 0.39 | 0.45 | – | – | – |
| aln (GeneID 2768997) | 1 | 0.29 | 0.29 | – | – | – |

The list goes on; the last 9 above are carried over.
| target | reagent no. | z-score, replicate 1 | z-score, replicate 2 | z-score, replicate 3 | z-score, replicate 4 | phenotype, replicate 1 |
| --- | --- | --- | --- | --- | --- | --- |
| Gale (GeneID 38076) | 1 | 0.14 | -0.13 | – | – | – |
| dimm (GeneID 35404) | 1 | 0.08 | 0.28 | – | – | – |
| inaF-B + inaF-D + inaF-C + 1 more | 1 | 0.08 | 0.02 | – | – | – |
| Jhbp13 (GeneID 34729) | 1 | 0.12 | 0.44 | – | – | – |
| CG2269 (GeneID 36056) | 1 | 0.58 | 0.39 | – | – | – |
| CG9386 (GeneID 41148) | 1 | 0.5 | 0.73 | – | – | – |
| CG40298 (GeneID 3355149) | 1 | 0.65 | 0.42 | – | – | – |
| NPF (GeneID 42018) | 1 | 0.39 | 0.45 | – | – | – |
| aln (GeneID 2768997) | 1 | 0.29 | 0.29 | – | – | – |
| CG5196 (GeneID 41522) | 1 | 0.38 | 0.62 | – | – | – |
| PMP34 (GeneID 38532) | 1 | 0.28 | 0.56 | – | – | – |
| boil (GeneID 31416) | 1 | 0.23 | 0.33 | – | – | – |
| CG3626 (GeneID 31377) | 1 | 0.18 | 0.48 | – | – | – |
| CG4610 (GeneID 37571) | 1 | 0.32 | 0.56 | – | – | – |
| CG4610 (GeneID 37571) | 2 | 0.03 | 0.12 | – | – | – |
| PPO2 (GeneID 35910) | 1 | -0.03 | 0.15 | – | – | – |
| mld (GeneID 2768685) | 1 | 0.54 | 0.59 | – | – | – |
| mld (GeneID 2768685) | 2 | 0.06 | 0.42 | – | – | – |
| ver (GeneID 39432) | 1 | 0.31 | 0.38 | – | – | – |
| CG12540 (GeneID 32393) | 1 | 0.23 | 0.43 | – | – | – |
| ND-B8 (GeneID 50178) | 1 | 0.24 | 0 | – | – | – |
| Send2 (GeneID 34836) | 1 | 0.11 | 0.35 | – | – | – |
| CG31462 (retired record) (GeneID 326143) | 1 | 0.08 | 0.37 | – | – | – |
| CG6707 (GeneID 39168) | 1 | 0.34 | 0.16 | – | – | – |
| up (GeneID 32314) | 1 | 0.39 | 0.07 | – | – | – |
| CG15023 (GeneID 38550) | 1 | 0.53 | 0.6 | – | – | – |
| Nlg4 (GeneID 42402) | 1 | 0.55 | 0.65 | – | – | – |
| Nlg4 (GeneID 42402) | 2 | 0.25 | 0.12 | – | – | – |
| Nlg4 (GeneID 42402) | 3 | 0.27 | 0.25 | – | – | – |
| Nlg4 (GeneID 42402) | 4 | -0.43 | -0.62 | – | – | – |
| Nlg4 (GeneID 42402) | 5 | -1.14 | -0.23 | – | – | – |
| CG6333 (GeneID 39953) | 1 | 0.32 | 0.4 | – | – | – |
| CG8323 (GeneID 36566) | 1 | 0.32 | -0.02 | – | – | – |
| nAChRalpha4 (GeneID 40521) | 1 | 0.19 | -0.09 | – | – | – |
| nAChRalpha4 (GeneID 40521) | 2 | 0.58 | 0.3 | – | – | – |
| RpL35 (GeneID 31483) | 1 | -2.2 | -3.53 | – | – | reduced secretion |
| LKRSDH (GeneID 34064) | 1 | 0.26 | 0.15 | – | – | – |
| Dh44-R1 (GeneID 36601) | 1 | 0.48 | 0.46 | – | – | – |
| CG32444 (GeneID 40406) | 1 | 0.36 | 0.3 | – | – | – |
| p38a (GeneID 42866) | 1 | 0.38 | 0.16 | – | – | – |
| Cam (GeneID 36329) | 1 | 0.19 | 0.28 | -0.1 | -0.09 | – |
| Cam (GeneID 36329) | 2 | 0.2 | 0.24 | – | – | – |
| Ptpmeg (GeneID 38059) | 1 | 0.1 | -0.12 | – | – | – |
| lncRNA:CR9284 (GeneID 12798136) | 1 | 0.56 | 0.46 | – | – | – |
| lncRNA:CR9284 (GeneID 12798136) | 2 | 0.21 | 0.43 | – | – | – |
| Vha44 (GeneID 36826) | 1 | -0.7 | -0.24 | – | – | – |
| Vha44 (GeneID 36826) | 2 | 0.31 | 0.14 | – | – | – |
| Alp6 (GeneID 35981) | 1 | 0.49 | 0.44 | – | – | – |
| obe (GeneID 41891) | 1 | 0.35 | 0.35 | – | – | – |
| Fis1 (GeneID 49892) | 1 | 0.46 | 0.19 | – | – | – |
| Tango5 (GeneID 326232) | 1 | -6.05 | -0.21 | – | – | reduced secretion |
| CG13494 (GeneID 37497) | 1 | -0.14 | 0.33 | – | – | – |
| brwl (GeneID 34275) | 1 | -1.83 | 0 | – | – | reduced secretion |
| brwl (GeneID 34275) | 2 | 0.07 | 0.16 | – | – | – |
| Mulk (GeneID 326168) | 1 | 0.41 | 0.33 | – | – | – |
| Gss1 + Gss2 | 1 | 0.44 | 0.65 | – | – | – |
| Gss1 + Gss2 | 2 | 0.51 | -0.01 | – | – | – |
| Bx42 (GeneID 31840) | 1 | -5.6 | -3.63 | – | – | reduced secretion |
| CG42594 (GeneID 8674091) | 1 | -2.67 | -2.9 | – | – | reduced secretion |
| CG42594 (GeneID 8674091) | 2 | 0.29 | 0.23 | – | – | – |
| Plzf (GeneID 34622) | 1 | 0.29 | 0.22 | – | – | – |
| CG1288 (GeneID 40865) | 1 | 0.04 | -0.12 | – | – | – |
